Assay results reported in PubChem BioAssay AID1045 (SRMLSC, 2008).
Among all 1,500 compounds or so, about 1,400 (93%) were called active. No rule for the calls is given here. The set was probably picked from earlier hits. The list shows a part of the results, in another mix than the full data. Potency and affinity values are given separately.

Assay: viability of HCT116 lacking mutant beta-catenin – cell-based, human colon tumor, dose response (AID 1045)
Conditions: HCT116 beta-catenin knockout viability, CellTiter-Glo, 60 h; at 30 µM (top of the series)

SMILES | viability
CC(C)N1C(=O)/C(=C/C=C/c2ccco2)C(=O)N(Cc2ccco2)C1=O | inactive: 88.8%
COc1ccc(CCNC(=O)c2c(N)n(CCN3CCOCC3)c3nc4ccccc4nc23)cc1OC | inactive: 88%
